The list shows a part of the results. Repeats are few or missing, and single values can be far off.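 Cells were imaged in 1,536-well plates, and nuclei stained with an antibody against cleaved PARP were counted against all DNA-stained nuclei to give the apoptosis fraction. Screening doses were chosen to leave most cells alive, and resting and induced cleaved-PARP levels differ strongly between cell lines.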
The compounds below were run on CBRC008 (line from a melanoma biopsy) (assay: cleaved PARP positive nuclei fraction relative to DMSO control; melanoma cells; higher = more apoptosis). Details: library dose: low library concentration; 72 h.

| SMILES | cleaved PARP positive nuclei fraction [%] |
| --- | --- |
| CS(=O)(=O)c1ccc(C(=O)Nc2ccc(Cl)c(-c3ccccn3)c2)c(Cl)c1 [vismodegib] + OCc1c[nH]c2ccccc12 [Indole-3-carbinol] (first compound 1 µM, partner dose 0.8 µM) | 166 |
| COc1ccc(C2=N[C@@H](c3ccc(Cl)cc3)[C@@H](c3ccc(Cl)cc3)N2C(=O)N2CCNC(=O)C2)c(OC(C)C)c1 [Nutlin-3] + NC1(c2ccc(-c3nc4ccn5c(=O)[nH]nc5c4cc3-c3ccccc3)cc2)CCC1 [MK2206] (first compound 0.1 µM, partner dose 0.4 µM) | 105 |
| COc1ccc(C2=N[C@@H](c3ccc(Cl)cc3)[C@@H](c3ccc(Cl)cc3)N2C(=O)N2CCNC(=O)C2)c(OC(C)C)c1 [Nutlin-3] + Clc1ccc(Nc2nnc(Cc3ccncc3)c3ccccc23)cc1 [vatalanib] (first compound 0.1 µM, partner dose 2 µM) | 199 |
| Cn1sc(=O)n(Cc2ccccc2)c1=O + CN(c1ncccc1CNc1nc(Nc2ccc3c(c2)CC(=O)N3)ncc1C(F)(F)F)S(C)(=O)=O [PF562271] (first compound 0.4 µM, partner dose 0.08 µM) | 65.2 |
| Cn1cnc2c(F)c(Nc3ccc(Br)cc3Cl)c(C(=O)NOCCO)cc21 [selumetinib] + CNC(=O)c1cc(Oc2ccc(NC(=O)Nc3ccc(Cl)c(C(F)(F)F)c3)cc2)ccn1 [sorafenib] (first compound 0.015 µM, partner dose 0.4 µM) | 72.6 |
| NC1(c2ccc(-c3nc4ccn5c(=O)[nH]nc5c4cc3-c3ccccc3)cc2)CCC1 + CCCS(=O)(=O)Nc1ccc(F)c(C(=O)c2c[nH]c3ncc(Cl)cc23)c1F [PLX4720] (first compound 0.4 µM, partner dose 0.08 µM) | 142 |
| NC(=O)c1ccc(N(C(N)=O)c2c(F)cccc2F)nc1-c1ccc(F)cc1F + C#Cc1cccc(Nc2ncnc3cc(OCCOC)c(OCCOC)cc23)c1 [erlotinib] (first compound 0.4 µM, partner dose 0.8 µM) | 155 |
| C[C@@H](N)c1ccc(C(=O)Nc2ccnc3[nH]ccc23)cc1 + Cn1sc(=O)n(Cc2ccccc2)c1=O [TDZD-8] (first compound 0.4 µM, partner dose 0.4 µM) | 253 |
| CS(=O)(=O)c1ccc(C(=O)Nc2ccc(Cl)c(-c3ccccn3)c2)c(Cl)c1 [vismodegib] + CCCCCCCCc1ccc(CCC(N)(CO)CO)cc1 [fingolimod] (first compound 1 µM, partner dose 2 µM) | 51.9 |
| Cn1cnc2c(F)c(Nc3ccc(Br)cc3Cl)c(C(=O)NOCCO)cc21 [selumetinib] + C#Cc1cccc(Nc2ncnc3cc(OCCOC)c(OCCOC)cc23)c1 [erlotinib] (first compound 0.015 µM, partner dose 0.8 µM) | 191 |
| CC1(C)CCC(c2ccc(Cl)cc2)=C(CN2CCN(c3ccc(C(=O)NS(=O)(=O)c4ccc(N[C@H](CCN5CCOCC5)CSc5ccccc5)c(S(=O)(=O)C(F)(F)F)c4)cc3)CC2)C1 + CS(=O)(=O)CCNCc1ccc(-c2ccc3ncnc(Nc4ccc(OCc5cccc(F)c5)c(Cl)c4)c3c2)o1 [lapatinib] (first compound 0.4 µM, partner dose 0.8 µM) | 310 |
| CC1(C)CCC(c2ccc(Cl)cc2)=C(CN2CCN(c3ccc(C(=O)NS(=O)(=O)c4ccc(N[C@H](CCN5CCOCC5)CSc5ccccc5)c(S(=O)(=O)C(F)(F)F)c4)cc3)CC2)C1 + O=C(O)[C@@H]1[O][Sb](=[O])([O][Sb]2(=[O])[O][C@H]([C@H](O)CO)[C@H](O)[C@H](C(=O)O)[O]2)[O][C@H]([C@H](O)CO)[C@@H]1O [stibogluconate] (first compound 0.4 µM, partner dose 2 µM) | 836 |
| CC1(C)CCC(c2ccc(Cl)cc2)=C(CN2CCN(c3ccc(C(=O)NS(=O)(=O)c4ccc(N[C@H](CCN5CCOCC5)CSc5ccccc5)c(S(=O)(=O)C(F)(F)F)c4)cc3)CC2)C1 + Nc1ccn([C@@H]2O[C@H](CO)[C@@H](O)C2(F)F)c(=O)n1 [gemcitabine] (first compound 0.4 µM, partner dose 0.0004 µM) | 715 |
| C[C@]1(O)C[C@@H](c2nc(-c3ccc4ccc(-c5ccccc5)nc4c3)c3c(N)nccn32)C1 + CC(=O)O[C@@]12CO[C@@H]1C[C@H](O)[C@@]1(C)C(=O)[C@H](O)C3=C(C)[C@@H](OC(=O)[C@H](O)[C@@H](NC(=O)OC(C)(C)C)c4ccccc4)C[C@@](O)([C@@H](OC(=O)c4ccccc4)[C@H]21)C3(C)C [Docetaxel] (first compound 0.4 µM, partner dose 0.0001 µM) | 397 |
| CC1(C)CCC(c2ccc(Cl)cc2)=C(CN2CCN(c3ccc(C(=O)NS(=O)(=O)c4ccc(N[C@H](CCN5CCOCC5)CSc5ccccc5)c(S(=O)(=O)C(F)(F)F)c4)cc3)CC2)C1 + Cn1sc(=O)n(Cc2ccccc2)c1=O [TDZD-8] (first compound 0.4 µM, partner dose 0.4 µM) | 371 |
| C[C@]1(O)C[C@@H](c2nc(-c3ccc4ccc(-c5ccccc5)nc4c3)c3c(N)nccn32)C1 + OCc1c[nH]c2ccccc12 [Indole-3-carbinol] (first compound 0.4 µM, partner dose 0.8 µM) | 61.9 |
| CN(c1ncccc1CNc1nc(Nc2ccc3c(c2)CC(=O)N3)ncc1C(F)(F)F)S(C)(=O)=O + C[C@]1(c2nc3c(C(N)=O)cccc3[nH]2)CCCN1 [Veliparib] (first compound 0.08 µM, partner dose 1.4 µM) | 107 |
| C[C@]1(O)C[C@@H](c2nc(-c3ccc4ccc(-c5ccccc5)nc4c3)c3c(N)nccn32)C1 + CCCS(=O)(=O)Nc1ccc(F)c(C(=O)c2c[nH]c3ncc(Cl)cc23)c1F [PLX4720] (first compound 0.4 µM, partner dose 0.08 µM) | 288 |
| CN(c1ncccc1CNc1nc(Nc2ccc3c(c2)CC(=O)N3)ncc1C(F)(F)F)S(C)(=O)=O + Cn1c(=O)n(-c2ccc(C(C)(C)C#N)cc2)c2c3cc(-c4cnc5ccccc5c4)ccc3ncc21 [NVP-BEZ235] (first compound 0.08 µM, partner dose 0.004 µM) | 107 |
| NC(=O)c1ccc(N(C(N)=O)c2c(F)cccc2F)nc1-c1ccc(F)cc1F + CC(=O)c1c(C)c2cnc(Nc3ccc(N4CCNCC4)cn3)nc2n(C2CCCC2)c1=O [palbociclib] (first compound 0.4 µM, partner dose 0.04 µM) | 59 |
| CN(c1ncccc1CNc1nc(Nc2ccc3c(c2)CC(=O)N3)ncc1C(F)(F)F)S(C)(=O)=O + CCCS(=O)(=O)Nc1ccc(F)c(C(=O)c2c[nH]c3ncc(Cl)cc23)c1F [PLX4720] (first compound 0.08 µM, partner dose 0.08 µM) | 82.3 |
| CCCCCCCCc1ccc(CCC(N)(CO)CO)cc1 [fingolimod] + Nc1nc(F)nc2c1ncn2[C@@H]1O[C@H](CO)[C@@H](O)[C@@H]1O [fludarabine] (first compound 2 µM, partner dose 0.2 µM) | 50 |
| CCCCCCCCc1ccc(CCC(N)(CO)CO)cc1 [fingolimod] + CC(=O)c1c(C)c2cnc(Nc3ccc(N4CCNCC4)cn3)nc2n(C2CCCC2)c1=O [palbociclib] (first compound 2 µM, partner dose 0.04 µM) | 53.7 |
| CC(=O)O[C@@]12CO[C@@H]1C[C@H](O)[C@@]1(C)C(=O)[C@H](O)C3=C(C)[C@@H](OC(=O)[C@H](O)[C@@H](NC(=O)OC(C)(C)C)c4ccccc4)C[C@@](O)([C@@H](OC(=O)c4ccccc4)[C@H]21)C3(C)C [Docetaxel] + Cc1cc(Nc2cc(N3CCN(C)CC3)nc(/C=C/c3ccccc3)n2)n[nH]1 [ENMD2076] (first compound 0.0001 µM, partner dose 0.04 µM) | 657 |
| CC1(C)CCC(c2ccc(Cl)cc2)=C(CN2CCN(c3ccc(C(=O)NS(=O)(=O)c4ccc(N[C@H](CCN5CCOCC5)CSc5ccccc5)c(S(=O)(=O)C(F)(F)F)c4)cc3)CC2)C1 + CCCS(=O)(=O)Nc1ccc(F)c(C(=O)c2c[nH]c3ncc(Cl)cc23)c1F [PLX4720] (first compound 0.4 µM, partner dose 0.08 µM) | 482 |
| CC(=O)O[C@@]12CO[C@@H]1C[C@H](O)[C@@]1(C)C(=O)[C@H](O)C3=C(C)[C@@H](OC(=O)[C@H](O)[C@@H](NC(=O)OC(C)(C)C)c4ccccc4)C[C@@](O)([C@@H](OC(=O)c4ccccc4)[C@H]21)C3(C)C [Docetaxel] + Cn1c(Nc2ccc(C(F)(F)F)cc2)nc2cc(Oc3ccnc(-c4ncc(C(F)(F)F)[nH]4)c3)ccc21 [CHIR265] (first compound 0.0001 µM, partner dose 0.08 µM) | 307 |
| Cn1sc(=O)n(Cc2ccccc2)c1=O + CC(C)C[C@H](NC(=O)[C@H](Cc1ccccc1)NC(=O)c1cnccn1)B(O)O [Bortezomib] (first compound 0.4 µM, partner dose 0.001 µM) | 618 |
| COc1ccc(C2=N[C@@H](c3ccc(Cl)cc3)[C@@H](c3ccc(Cl)cc3)N2C(=O)N2CCNC(=O)C2)c(OC(C)C)c1 [Nutlin-3] + C=CCNC1=C2C[C@@H](C)C[C@H](OC)[C@H](O)[C@@H](C)/C=C(\C)[C@H](OC(N)=O)[C@@H](OC)/C=C\C=C(/C)C(=O)NC(=CC1=O)C2=O [Tanespimycin] (first compound 0.1 µM, partner dose 0.002 µM) | 50.8 |

Shown as tab-separated lines: entries from further up.
SMILES	cleaved PARP positive nuclei fraction [%]
CN(c1ncccc1CNc1nc(Nc2ccc3c(c2)CC(=O)N3)ncc1C(F)(F)F)S(C)(=O)=O + Cn1c(=O)n(-c2ccc(C(C)(C)C#N)cc2)c2c3cc(-c4cnc5ccccc5c4)ccc3ncc21 [NVP-BEZ235] (first compound 0.08 µM, partner dose 0.004 µM)	107
NC(=O)c1ccc(N(C(N)=O)c2c(F)cccc2F)nc1-c1ccc(F)cc1F + CC(=O)c1c(C)c2cnc(Nc3ccc(N4CCNCC4)cn3)nc2n(C2CCCC2)c1=O [palbociclib] (first compound 0.4 µM, partner dose 0.04 µM)	59
CN(c1ncccc1CNc1nc(Nc2ccc3c(c2)CC(=O)N3)ncc1C(F)(F)F)S(C)(=O)=O + CCCS(=O)(=O)Nc1ccc(F)c(C(=O)c2c[nH]c3ncc(Cl)cc23)c1F [PLX4720] (first compound 0.08 µM, partner dose 0.08 µM)	82.3
CCCCCCCCc1ccc(CCC(N)(CO)CO)cc1 [fingolimod] + Nc1nc(F)nc2c1ncn2[C@@H]1O[C@H](CO)[C@@H](O)[C@@H]1O [fludarabine] (first compound 2 µM, partner dose 0.2 µM)	50
CCCCCCCCc1ccc(CCC(N)(CO)CO)cc1 [fingolimod] + CC(=O)c1c(C)c2cnc(Nc3ccc(N4CCNCC4)cn3)nc2n(C2CCCC2)c1=O [palbociclib] (first compound 2 µM, partner dose 0.04 µM)	53.7

From the supplement of paper PMC4604168 (melanoma cell lines)
